The results in this text go back to PubChem BioAssay AID328 (DTP/NCI, 2004).

The list shows only some results of the screen, not a fair sample: it gathers tests that were run many times, whatever their T/C, doses with no T/C, and many T/C values between a quarter and a half above the control. Other doses and runs of a compound stand elsewhere. T/C: endpoint of the treated group in % of that of the vehicle group. Some doses have a count of surviving animals in place of a T/C: the source files T/C as zero there, which appears to mark a toxic dose or a test without result, not a measured value. Some survivor counts are full or nearly so, which does not show that the dose was tolerated: the source hardly ever lists a survival T/C far under the control, and the zero likely stands for such cases as well. Survivors were counted at the toxicity check, usually on the fifth day, unless a day is given; later deaths do not show. Schedule codes are those of the source, taken here to give the interval after Q, in days (D) or hours (H), and the number of doses after X. Some entries were tested several times; their values stand side by side, smallest first. Where survival is the endpoint, the PubChem record calls one and a half times the control and up active, and a quarter to a half above the control has no call in these data; cut-offs in other NCI protocols can differ. Some T/C values carry the count of animals alive at the toxicity check (mostly the fifth day); where none is given, no animal had died by that day.

The subject of this test is BDF1 mice, P388 leukemia ip, median survival T/C. Description: NCI In Vivo Anticancer Drug Screen. Data for tumor model P388 Leukemia (intraperitoneal) in B6D2F1 (BDF1) mice. As to conditions: T/C endpoint: median survival time, higher T/C = longer survival. A digest of the protocol: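 Transplantable tumour in mice; compound vs vehicle dosing; survival scored; ratio of treated to control reported.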

Where [1] appears, read: dose: 6.0 mg/kg/injection, schedule: Q01DX009 (ip), vehicle: Klucel (hydroxypropylcellulose) (HPC).
Where [2] appears, read: dose: 24.0 mg/kg/injection, schedule: Q01DX009 (ip), vehicle: Klucel (hydroxypropylcellulose) (HPC).
Where [3] appears, read: dose: 50.0 mg/kg/injection, schedule: Q04DX003 (ip), vehicle: Klucel (hydroxypropylcellulose) (HPC).
[4] abbreviates: dose: 100.0 mg/kg/injection, schedule: Q04DX003 (ip), vehicle: Klucel (hydroxypropylcellulose) (HPC).
[5] abbreviates: dose: 200.0 mg/kg/injection, schedule: Q04DX003 (ip), vehicle: Klucel (hydroxypropylcellulose) (HPC).
Where [6] appears, read: dose: 400.0 mg/kg/injection, schedule: Q01DX009 (ip), vehicle: saline with Tween-80.
Where [7] appears, read: dose: 3.0 mg/kg/injection, schedule: Q01DX009 (ip), vehicle: Klucel (hydroxypropylcellulose) (HPC).

`ClCCN(CCCl)CCN1c2ccccc2Sc2ccccc21`: the T/C by setting is: (dose: 1.8 mg/kg/injection, schedule: Q01DX009 (ip), vehicle: Klucel (hydroxypropylcellulose) (HPC)) 138 % of control; (dose: 2.7 mg/kg/injection, schedule: Q01DX009 (ip), vehicle: Klucel (hydroxypropylcellulose) (HPC)) 147 % of control; (dose: 4.1 mg/kg/injection, schedule: Q01DX009 (ip), vehicle: Klucel (hydroxypropylcellulose) (HPC)) 131 % of control; under setting [1], 130 and 133 % of control; (dose: 6.1 mg/kg/injection, schedule: Q01DX009 (ip), vehicle: Klucel (hydroxypropylcellulose) (HPC)) 145 % of control [5 of 6 alive]; (dose: 9.0 mg/kg/injection, schedule: Q01DX009 (ip), vehicle: Klucel (hydroxypropylcellulose) (HPC)) 137, 138, 141 % of control [5 of 6 alive]. Besides, the T/C was 141 [4 of 6 alive] and 146 % of control (dose: 14.0 mg/kg/injection, schedule: Q01DX009 (ip), vehicle: Klucel (hydroxypropylcellulose) (HPC)); 129 % of control (dose: 18.0 mg/kg/injection, schedule: Q01DX009 (ip), vehicle: Klucel (hydroxypropylcellulose) (HPC)); 141 % of control (dose: 23.0 mg/kg/injection, schedule: Q04DX003 (ip), vehicle: saline with Tween-80); 130 % of control [5 of 6 alive] under setting [2]; 141 % of control (dose: 35.0 mg/kg/injection, schedule: Q04DX003 (ip), vehicle: saline with Tween-80). The survivor count runs as follows: (dose: 18.75 mg/kg/injection, schedule: Q01DX009 (ip), vehicle: Klucel (hydroxypropylcellulose) (HPC)) 3 of 6; (dose: 37.0 mg/kg/injection, schedule: Q01DX009 (ip), vehicle: Klucel (hydroxypropylcellulose) (HPC)) 5 of 6; (dose: 37.5 mg/kg/injection, schedule: Q01DX009 (ip), vehicle: Klucel (hydroxypropylcellulose) (HPC)) 1 of 6; under setting [3], 5 of 6; (dose: 56.0 mg/kg/injection, schedule: Q01DX009 (ip), vehicle: Klucel (hydroxypropylcellulose) (HPC)) 0 of 6; (dose: 70.0 mg/kg/injection, schedule: Q04DX003 (ip), vehicle: Klucel (hydroxypropylcellulose) (HPC)) 3 of 6. The survivor count under setting [4] is 0 of 5; the survivor count under setting [5] is recorded as 0 of 6; the survivor count (dose: 400.0 mg/kg/injection, schedule: Q04DX003 (ip), vehicle: Klucel (hydroxypropylcellulose) (HPC)) is 0 of 6.

In the case of `O=c1[nH]cnc2ccnn12`, where the note is “dose: 150.0 mg/kg/injection, schedule: Q01DX009 (ip), vehicle: saline”, the survivor count was 4 of 6.

As for `CCOc1cc(N2CCOCC2)c(OCC)cc1N`, the survivor count is recorded as 2 of 6 (dose: 100.0 mg/kg/injection, schedule: Q01DX001 (ip), vehicle: saline); 0 of 6 (dose: 200.0 mg/kg/injection, schedule: Q01DX001 (ip), vehicle: saline); 0 of 6 (dose: 400.0 mg/kg/injection, schedule: Q01DX001 (ip), vehicle: saline).

Take `O=C1NC(C2CC3C=CC2C3)Nc2ccccc21` (stereo not given): the survivor count under setting [3] is 5 of 6.

As for `COc1cc([N+](=O)[O-])cc(C=O)c1OC(=O)c1ccccc1`, the survivor count by setting is: (dose: 200.0 mg/kg/injection, schedule: Q01DX009 (ip), vehicle: saline with Tween-80) 5 of 6; under setting [6], 1 of 6.

Take `BrCc1ccc(CBr)c(Br)c1`: the survivor count runs as follows: under setting [3], 5 of 6; under setting [4], 0 of 6; under setting [5], 0 of 6.

Turning to `CCCCCCCCCCCCCCCCS(=O)(=O)N/N=C/C(=O)O`, the T/C was 129 % of control (dose: 12.5 mg/kg/injection, schedule: Q01DX009 (ip), vehicle: other); 125 and 131 % of control (dose: 25.0 mg/kg/injection, schedule: Q01DX009 (ip), vehicle: other); 140 and 145 % of control (dose: 50.0 mg/kg/injection, schedule: Q01DX009 (ip), vehicle: other). The survivor count is, setting by setting: (dose: 100.0 mg/kg/injection, schedule: Q01DX009 (ip), vehicle: other) 4 of 6 and 6 of 6; (dose: 200.0 mg/kg/injection, schedule: Q01DX009 (ip), vehicle: other) 0 of 6 and 2 of 6; (dose: 400.0 mg/kg/injection, schedule: Q01DX009 (ip), vehicle: other) 0 of 6.

For the compound `CC(=O)[O][Pb]([CH2]CC(C)C)([CH2]CC(C)C)[CH2]CC(C)C`, the T/C reads like this: (dose: 0.38 mg/kg/injection, schedule: Q01DX009 (ip), vehicle: saline with Tween-80) 132 % of control; (dose: 0.75 mg/kg/injection, schedule: Q01DX009 (ip), vehicle: Klucel (hydroxypropylcellulose) (HPC)) 131 % of control; (dose: 1.5 mg/kg/injection, schedule: Q01DX009 (ip), vehicle: Klucel (hydroxypropylcellulose) (HPC)) 125 and 129 % of control. In addition, the survivor count is, setting by setting: (dose: 0.75 mg/kg/injection, schedule: Q01DX009 (ip), vehicle: saline with Tween-80) 1 of 6; (dose: 1.5 mg/kg/injection, schedule: Q01DX009 (ip), vehicle: saline with Tween-80) 0 of 6; under setting [7], 0 of 6; (dose: 3.0 mg/kg/injection, schedule: Q01DX009 (ip), vehicle: saline with Tween-80) 0 of 6.

`CC(C)(C)C#C[P+](C#CC(C)(C)C)(Cc1ccccc1)c1ccccc1`: the survivor count runs as follows: (dose: 25.0 mg/kg/injection, schedule: Q01DX009 (ip), vehicle: saline) 6 of 6; (dose: 50.0 mg/kg/injection, schedule: Q01DX009 (ip), vehicle: saline) 5 of 6.

For the compound `CCC[CH2][Sn]1([CH2]CCC)[N](S(=O)(=O)c2ccc(C)cc2)c2ccccc2[N]1S(=O)(=O)c1ccc(C)cc1`, the T/C under setting [7] is 127 and 140 % of control; the T/C under setting [1] is 137 % of control. Further, the survivor count (dose: 12.0 mg/kg/injection, schedule: Q01DX009 (ip), vehicle: Klucel (hydroxypropylcellulose) (HPC)) was 6 of 6 and the survivor count under setting [2] is listed as 4 of 6.

With `c1csc(C[N+]23CN4CN(CN(C4)C2)C3)c1`, where the note is “dose: 200.0 mg/kg/injection, schedule: Q01DX009 (ip), vehicle: saline”, the T/C is 148 % of control. Also, the survivor count (dose: 400.0 mg/kg/injection, schedule: Q01DX009 (ip), vehicle: saline) is 3 of 6.

`CCOc1ccc(Br)cc1/C=N/NS(=O)(=O)c1ccc(C)cc1`: for the setting “dose: 400.0 mg/kg/injection, schedule: Q04DX003 (ip), vehicle: saline with Tween-80”, the T/C was 127 % of control.

Regarding `COc1cc2c(c(OC)c1OC)-c1ccc(N)c(=O)cc1[C@@H](NC(C)=O)CC2`, for the setting “dose: 1.0 mg/kg/injection, schedule: Q01DX010 (ip), vehicle: saline”, the T/C is 127 % of control. Moreover, for the setting “dose: 4.0 mg/kg/injection, schedule: Q01DX010 (ip), vehicle: saline”, the survivor count is reported as 8 of 8.

With `CC(C)(C)C(=O)CC(O)(C(F)(F)Cl)C(F)(F)Cl`, under setting [6], the survivor count is given as 6 of 6.

For the compound `CC1=C2CC(C)(C)/C=C\C(=O)/C(C)=C\C3=CC(C)(O)CC3(O2)C1=O` (stereo not given), the T/C by setting is: (dose: 2.5 mg/kg/injection, schedule: Q01DX009 (ip), vehicle: saline + alcohol) 130 % of control; (dose: 5.0 mg/kg/injection, schedule: Q01DX009 (ip), vehicle: saline + alcohol) 134 % of control. Besides, the survivor count (dose: 20.0 mg/kg/injection, schedule: Q01DX009 (ip), vehicle: saline + alcohol) is given as 1 of 4.

For `CC12CCC3C(CCC4=CC(=O)CCC43C)C1CCC(=O)O2` (stereo not given), the survivor count is, setting by setting: (dose: 200.0 mg/kg/injection, schedule: Q01DX009 (ip), vehicle: Klucel (hydroxypropylcellulose) (HPC)) 2 of 6; (dose: 400.0 mg/kg/injection, schedule: Q01DX009 (ip), vehicle: Klucel (hydroxypropylcellulose) (HPC)) 0 of 6.
